Reference: patent US8309725B2 (priority 2007, dated 2012)

Chains of the proteins cited; added tags and fusions are not shown.
UniProt P41144, whole entry: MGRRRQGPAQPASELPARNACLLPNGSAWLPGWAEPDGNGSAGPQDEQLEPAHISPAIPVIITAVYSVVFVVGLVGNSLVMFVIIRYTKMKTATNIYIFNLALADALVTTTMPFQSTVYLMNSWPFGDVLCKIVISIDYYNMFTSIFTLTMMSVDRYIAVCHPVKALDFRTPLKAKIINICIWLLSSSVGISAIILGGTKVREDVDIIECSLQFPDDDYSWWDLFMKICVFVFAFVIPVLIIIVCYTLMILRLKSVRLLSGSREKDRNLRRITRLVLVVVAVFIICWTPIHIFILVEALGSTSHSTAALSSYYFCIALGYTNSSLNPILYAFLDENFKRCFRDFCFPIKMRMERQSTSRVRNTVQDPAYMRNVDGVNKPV

Target: κ receptor (Cavia porcellus, UniProt P41144)
Conditions: read-out: κ: Ki ± SEM; guinea pig brain preparation, [3H]-U69.593, Tables 1 and 2

CN1CCN(C(=O)Cc2ccc(Cl)c(Cl)c2)[C@@H]2[C@H]1CCC[C@@H]2N1CCC(O)C1 (relative stereo)
pKi: 8.27

pKi: −log10 of the molar value. The match of structure and compound is tentative.
